Results published in patent US10961202B2, “Bis-benzimidazole compounds and methods of using the same” (THE SCRIPPS RESEARCH INSTITUTE, priority 2017, dated 2021).
At least one compound was matched to its structure with a doubt left.

Test system: r(CUG)12-MBNL1 complex
Test: Inhibition of the r(CUG)12-MBNL1 complex measured by TR-FRET
Type: biochemical
Settings: 80 nM RNA, 60 nM MBNL1-His6

O=[N+]([O-])c1ccc2nc(-c3ccc(-c4nc5ccc([N+](=O)[O-])cc5[nH]4)cc3)[nH]c2c1 [Compound 1, 1,4-bis(6-nitro-1H-benzo[d]imidazol-2-yl)benzene]
IC50 (Table L): 18 µM

CC(C)(C)OC(=O)NCC(=O)NCC(=O)NCc1cn(CCN2CCN(CCNC(=O)c3ccc4nc(-c5ccc(-c6nc7ccc(C(=O)NCCN8CCCCC8)cc7[nH]6)cc5)[nH]c4c3)CC2)nn1 [Compound 177, tert-butyl (2-oxo-2-((2-oxo-2-(((1-(2-(4-(2-(2-(4-(6-((2-(piperidin-1-yl)ethyl)carbamoyl)-1H-benzo[d]imidazol-2-yl)phenyl)-1H-benzo[d]imidazole-6-carboxamido)ethyl)piperazin-1-yl)ethyl)-1H-1,2,3-triazol-4-yl)methyl)amino)ethyl)amino)ethyl)carbamate]
IC50 (Table M): > 200 µM
